No constants are given. Whether binding was seen depends on the method and setting. In cells and extracts the contact can be indirect. These calls come from enrichment with a bait or labelling near it, and not all partners need be listed.
B1: Cct8 (protein, UniProt P42932 1-548)
chain: MALHVPKAPGFAQMLKDGAKHFSGLEEAVYRNIQACKELAQTTRTAYGPNGMNKMVINRLEKLFVTNDAATILRELEVQHPAAKMIVMASHMQEQEVGDGTNFVLVFAGALLELAEELLRIGLSVSEVISGYEIACKKAHEILPELVCCSAKNLRDVDEVSSLLRTSIMSKQYGSETFLAKLIAQACVSIFPDSGNFNVDNIRVCKILGSGIYSSSVLHGMVFKKETEGDVTSVKDAKIAVYSCPFDGMITETKGTVLIKTAEELMNFSKGEENLMDAQVKAIAGTGANVIVTGGKVADIALHYANKYNIMLVRLNSKWDLRRLCKTVGATALPKLTPPVQEEMGHCDSVYLSEVGDTQVVVFKHEKEDGAISTIVLRGSTDNLMDDIERAVDDGVNTFKVLTRDKRLVPGGGATEIELAKQITSYGETCPGLEQYAIKKFAEAFEAIPRALAENSGVKANEVISKLYSVHQEGNKNVGLDIEAEVPAVKDMLEASILDTYLGKYWAIKLATNAAVTVLRVDQIIMAKPAGGPKPPSGKKDWDDDQND
B2: BAG5 (mouse) (protein, UniProt Q8CI32 1-447)
chain: MDMGNQHPSISRLQEIQREVKAIEPQVVGFSGLSDDKNYKRLERILTKQLFEIDSVDTEGKGDIQQARKRAAQETERLLKELEQNANHPHRIEIQNIFKEAQALVKDKIVPFYSGGNCVTDEFEEGIQDIILRLTHVKTGGKVSLRKARYRTLTKICAVQEVIEDCMKKQPSLPLSEDVHPSVAKINSVMCEVNKARGTLIALLMGVDSSETCRHLSCVLSGLIADLDALDVCGRTEIRNYRREVVEDINKLLKYLDLEEEADSTHAFDLGQNHSIIKIENVLKRMREIKNELLQAQSPPELYLRAKTELQGLIGQLDEVSLEKNPCIREARRRAVIEVQILITYLDLKEALEKRKLFPCEEHPPHKAVWEILGNLSEILGEVLSFGGNRTDKNYIRLEELLTKQLLALDAVDPQGEEKCKAARKQAVKLAQNILSYLDMKSDEWEY

Protein sequences, listed by entry. Tags and fused reporters are not part of them.
UniProt P60122: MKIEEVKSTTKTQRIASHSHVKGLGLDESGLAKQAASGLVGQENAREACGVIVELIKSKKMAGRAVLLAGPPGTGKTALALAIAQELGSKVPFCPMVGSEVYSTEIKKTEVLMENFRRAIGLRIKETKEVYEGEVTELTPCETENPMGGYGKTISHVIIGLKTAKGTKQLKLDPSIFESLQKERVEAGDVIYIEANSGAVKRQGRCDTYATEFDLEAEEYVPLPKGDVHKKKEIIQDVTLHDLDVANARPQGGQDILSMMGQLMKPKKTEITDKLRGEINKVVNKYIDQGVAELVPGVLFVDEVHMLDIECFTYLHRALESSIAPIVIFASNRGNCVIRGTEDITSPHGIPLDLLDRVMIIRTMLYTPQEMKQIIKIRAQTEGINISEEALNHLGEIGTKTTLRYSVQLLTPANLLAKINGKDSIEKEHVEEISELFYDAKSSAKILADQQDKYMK
UniProt Q91YN9: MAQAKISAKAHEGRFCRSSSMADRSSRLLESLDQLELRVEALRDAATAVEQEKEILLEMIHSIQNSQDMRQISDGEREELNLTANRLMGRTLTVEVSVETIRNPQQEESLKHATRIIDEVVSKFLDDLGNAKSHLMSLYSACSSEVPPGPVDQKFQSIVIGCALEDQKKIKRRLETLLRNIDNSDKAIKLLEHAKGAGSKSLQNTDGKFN

Biological target: mutp53 R172H (mouse) (mouse (endogenous in thymic lymphomas of R172H knock-in mice)) (UniProt P02340)
Experiment: affinity purification with mass spectrometry; IP with p53 antibody from thymic lymphomas (and normal thymus) of mutp53 R172H knock-in mice, LC-MS/MS

Molecule | binding
Pontin (from UniProt P60122 1-456) | binds
BAG2 (mouse) (from UniProt Q91YN9 1-210) | binds
B1 | binds
B2 | binds
